Data as given in PubChem BioAssay AID298 (DTP/NCI, 2004).
The list is a part of this screen's results and no random one: it gathers tests that were run many times, whatever their T/C, doses with no T/C, and many T/C values between a quarter and a half above the control. Further doses and runs are listed elsewhere. T/C gives the treated animals as a percentage of the vehicle group. Schedules are NCI's codes, taken here to give the interval after Q, in days (D) or hours (H), and the number of doses after X. Some entries were tested several times; their values stand side by side, smallest first. Some T/C values are followed by the survivors on the day toxicity was checked, most often the fifth; without a count, all were alive then. Some entries give survivors of the animals treated and no T/C: the source files T/C as zero there, which appears to mark a toxic dose or a test without result, not a measured value. Survivors were counted at the toxicity check, usually on the fifth day, unless a day is given; later deaths do not show. Some molecules as drawn cover several salts, stereoisomers or complexes of the source; a dose is that of the sample tested.

Test system: MX-1 breast xenograft, intrarenal, nude mice, tumor weight
Assay: NCI In Vivo Anticancer Drug Screen. Data for tumor model Human Mammary Carcinoma MX-1 Xenograft (intrarenal inoculation) in NU/NU BALB/C (nude) mice
Conditions: T/C endpoint: mean tumor weight change, higher T/C = larger tumour; for T/C: evaluated on day 11
Procedure: The antitumor activity of compounds was measured in mice bearing transplantable tumors. Survival or tumor size were measured and the results are expressed as the measurement made in the treated group (T) divided by the measurement made in the vehicle treated control group (C). The tumor model used in this assay is Human Mammary Carcinoma MX-1 Xenograft (intrarenal inoculation) in NU/NU BALB/C (nude) mice

[1] = dose: 800.0 mg/kg/injection, schedule: Q04DX003 (ip), vehicle: saline with Tween-80

Question: For `N/C(=N/N=C/c1cc(Br)cc(Br)c1O)NO`, which T/C (dose: 100.0 mg/kg/injection, schedule: Q04DX003 (ip), vehicle: suspension in saline) is on record?
Answer: The T/C was 140 % of control [5 of 6 alive on day 11].

Question: What about the survivor count (dose: 400.0 mg/kg/injection, schedule: Q04DX003 (ip), vehicle: suspension in saline) of the same compound?
Answer: Its survivor count is 0 of 6 on day 11.

Question: With `C=C/C(C)=C/[C@H](C)C(=O)C[C@H](O)CC1CC(=O)NC(=O)C1` as the compound, how does the T/C (dose: 2400.0 mg/kg/injection, schedule: Q04DX003 (sc), vehicle: water) read?
Answer: Its T/C is 132 % of control [5 of 6 alive on day 11].

Question: Which results are given for `Nc1n[nH]c2ccccc12`?
Answer: T/C (dose: 150.0 mg/kg/injection, schedule: Q04DX003 (ip), vehicle: other): 130 % of control; survivor count (dose: 1200.0 mg/kg/injection, schedule: Q04DX003 (ip), vehicle: other): 0 of 6 on day 11

Question: Which survivor count (dose: 150.0 mg/kg/injection, schedule: Q04DX003 (sc), vehicle: saline) does the source give for `N=C1CCCS1` here?
Answer: The survivor count was 0 of 6 on day 11.

Question: For `NC(=O)CCC(N)C(=O)O` (configuration not stated), which T/C (dose: 75.0 mg/kg/injection, schedule: Q04DX003 (ip), vehicle: suspension in saline) is on record?
Answer: Its T/C is 137 % of control.

Question: `COc1oc(C2C/C(=C/C(C)=C/C(C)=C/C(C)=C/c3ccc([N+](=O)[O-])cc3)CO2)c(C)c(=O)c1C` (configuration not stated) was tested. Which survivor count (dose: 4.0 mg/kg/injection, schedule: Q04DX003 (ip), vehicle: saline) did it give?
Answer: Its survivor count is 3 of 6 on day 11.

Question: And the survivor count (dose: 8.0 mg/kg/injection, schedule: Q04DX003 (ip), vehicle: saline)?
Answer: The survivor count was 1 of 6 on day 11.

Question: For `CC(C)(C)c1cc2c3c(c1)Oc1cc(C(C)(C)C)cc4c1C3(O)c1c(cc(C(C)(C)C)cc1O4)O2`, which T/C (dose: 12.5 mg/kg/injection, schedule: Q04DX003 (ip), vehicle: Klucel (hydroxypropylcellulose) (HPC)) is on record?
Answer: Its T/C is 132 % of control.

Question: What about the survivor count (dose: 25.0 mg/kg/injection, schedule: Q04DX003 (ip), vehicle: Klucel (hydroxypropylcellulose) (HPC)) of the same compound?
Answer: The survivor count was 0 of 6 on day 11.

Question: What about the survivor count (dose: 50.0 mg/kg/injection, schedule: Q04DX003 (ip), vehicle: Klucel (hydroxypropylcellulose) (HPC)) of the same compound?
Answer: Its survivor count is 0 of 6 on day 11.

Question: What about the survivor count (dose: 100.0 mg/kg/injection, schedule: Q04DX003 (ip), vehicle: Klucel (hydroxypropylcellulose) (HPC)) of the same compound?
Answer: Its survivor count is 0 of 6 on day 11.

Question: Which survivor count (dose: 800.0 mg/kg/injection, schedule: Q04DX003 (sc), vehicle: saline with Tween-80) does the source give for `O=C[C@@H](CO)O[C@H](C=O)n1cnc2c(=O)[nH]cnc21` here?
Answer: Its survivor count is 0 of 3 on day 11.

Question: Which survivor count (dose: 400.0 mg/kg/injection, schedule: Q01DX010 (sc), vehicle: saline with Tween-80) does the source give for `ClCC[N+]12CC[N+](CCCl)(CC1)C2` here?
Answer: The survivor count was 0 of 3 on day 11.

Question: What about the survivor count (dose: 600.0 mg/kg/injection, schedule: Q04DX003 (sc), vehicle: water) of the same compound?
Answer: The survivor count was 0 of 6 on day 11.

Question: `NC(CNC(=O)CBr)C(=O)O` (configuration not stated) was tested. Which survivor count (dose: 150.0 mg/kg/injection, schedule: Q04DX003 (sc), vehicle: water) did it give?
Answer: Its survivor count is 0 of 6 on day 11.

Question: For `O=C(Nc1ccccc1)c1c(O)[nH]c(=O)[nH]c1=O`, which survivor count [1] is on record?
Answer: Its survivor count is 0 of 6 on day 11.

Question: Which results are given for `CNC(=O)N(C)N=NCCCl`?
Answer: survivor count (dose: 400.0 mg/kg/injection, schedule: Q04DX003 (ip), vehicle: saline with Tween-80): 1 of 6 on day 11; survivor count (dose: 666.66 mg/kg/injection, schedule: Q04DX003 (ip), vehicle: saline with Tween-80): 0 of 6 on day 11; survivor count [1]: 0 of 5 on day 11

Question: How did the survivor count (dose: 15.0 mg/kg/injection, schedule: Q04DX003 (ip), vehicle: distilled water + Tween-80) turn out when `C#CCNC1=C(C)C(=O)C2=C(C1=O)[C@H](COC(N)=O)[C@]1(OC)[C@@H]3N[C@@H]3CN21` was run?
Answer: Its survivor count is 0 of 6 on day 11.

Question: What about the survivor count (dose: 30.0 mg/kg/injection, schedule: Q04DX003 (ip), vehicle: distilled water + Tween-80) of the same compound?
Answer: Its survivor count is 0 of 6 on day 11.

Question: What about the survivor count (dose: 60.0 mg/kg/injection, schedule: Q04DX003 (ip), vehicle: distilled water + Tween-80) of the same compound?
Answer: Its survivor count is 0 of 6 on day 11.

Question: Which results are given for `COc1cccc2c1C(=O)C1=C(C2=O)c2c(O)cc(CO)cc2C(O)C1O` (configuration not stated)?
Answer: survivor count (dose: 50.0 mg/kg/injection, schedule: Q04DX003 (ip), vehicle: other): 3 of 5 on day 11; survivor count (dose: 100.0 mg/kg/injection, schedule: Q04DX003 (ip), vehicle: other): 0 of 5 on day 11

Question: How did the T/C (dose: 6.25 mg/kg/injection, schedule: Q04DX003 (ip), vehicle: DMSO) turn out when `COc1cc2c(oc(=O)c3cc(C)cc(OC)c32)c2c(C3OC(C)C(O)C(C)(O)C3O)ccc(O)c12` (configuration not stated) was run?
Answer: Its T/C is 132 and 137 % of control.
